Results taken from US20230366033A1, “METHODS FOR TREATING CANCERS WITH INHIBITORS TARGETING THE ROLE OF GRB2 IN DNA REPAIR” (Board of Regents, The University of Texas System, priority 2020, published 2023).

Amino acid sequences for entries named in this document (tags omitted). Residues count along the entry.
UniProt O00308: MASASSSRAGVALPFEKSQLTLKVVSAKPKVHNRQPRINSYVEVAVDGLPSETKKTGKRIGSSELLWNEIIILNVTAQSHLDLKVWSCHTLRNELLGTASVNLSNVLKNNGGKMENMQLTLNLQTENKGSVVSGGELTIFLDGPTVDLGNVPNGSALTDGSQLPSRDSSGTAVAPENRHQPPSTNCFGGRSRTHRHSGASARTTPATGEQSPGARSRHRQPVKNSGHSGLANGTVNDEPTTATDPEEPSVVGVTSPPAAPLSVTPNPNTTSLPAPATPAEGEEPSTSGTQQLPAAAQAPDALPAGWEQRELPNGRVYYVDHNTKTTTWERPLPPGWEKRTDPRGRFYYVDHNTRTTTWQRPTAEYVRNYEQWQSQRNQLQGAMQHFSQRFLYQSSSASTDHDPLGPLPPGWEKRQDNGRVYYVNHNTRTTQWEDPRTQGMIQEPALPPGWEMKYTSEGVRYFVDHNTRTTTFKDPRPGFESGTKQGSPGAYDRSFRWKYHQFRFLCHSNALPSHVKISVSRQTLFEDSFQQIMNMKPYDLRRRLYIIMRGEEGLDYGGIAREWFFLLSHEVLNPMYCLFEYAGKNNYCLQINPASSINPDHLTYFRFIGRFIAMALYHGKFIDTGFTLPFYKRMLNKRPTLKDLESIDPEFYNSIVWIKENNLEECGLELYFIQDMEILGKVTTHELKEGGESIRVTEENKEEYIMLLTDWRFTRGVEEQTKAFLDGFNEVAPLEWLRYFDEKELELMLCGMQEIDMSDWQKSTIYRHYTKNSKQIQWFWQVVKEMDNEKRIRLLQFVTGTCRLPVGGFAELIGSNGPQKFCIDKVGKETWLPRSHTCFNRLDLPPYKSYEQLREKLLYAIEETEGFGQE
UniProt O75925, residues 2-651: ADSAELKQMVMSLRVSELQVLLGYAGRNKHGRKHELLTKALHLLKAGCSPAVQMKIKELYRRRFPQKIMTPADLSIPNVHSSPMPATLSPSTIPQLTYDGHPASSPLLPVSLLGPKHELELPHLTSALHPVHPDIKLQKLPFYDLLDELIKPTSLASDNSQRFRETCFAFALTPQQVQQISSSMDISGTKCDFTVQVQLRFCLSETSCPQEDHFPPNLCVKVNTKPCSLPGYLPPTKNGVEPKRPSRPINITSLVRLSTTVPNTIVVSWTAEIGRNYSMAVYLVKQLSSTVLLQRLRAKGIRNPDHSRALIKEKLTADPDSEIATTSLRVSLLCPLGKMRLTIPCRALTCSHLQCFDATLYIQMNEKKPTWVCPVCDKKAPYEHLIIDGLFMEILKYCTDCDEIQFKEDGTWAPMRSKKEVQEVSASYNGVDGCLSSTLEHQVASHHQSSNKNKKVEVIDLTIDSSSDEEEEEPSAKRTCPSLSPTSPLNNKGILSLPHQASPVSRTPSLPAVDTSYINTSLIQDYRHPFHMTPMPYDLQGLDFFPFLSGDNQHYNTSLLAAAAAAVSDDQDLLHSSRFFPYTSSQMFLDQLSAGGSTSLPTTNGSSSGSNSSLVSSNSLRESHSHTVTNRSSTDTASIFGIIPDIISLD
UniProt Q9NS91: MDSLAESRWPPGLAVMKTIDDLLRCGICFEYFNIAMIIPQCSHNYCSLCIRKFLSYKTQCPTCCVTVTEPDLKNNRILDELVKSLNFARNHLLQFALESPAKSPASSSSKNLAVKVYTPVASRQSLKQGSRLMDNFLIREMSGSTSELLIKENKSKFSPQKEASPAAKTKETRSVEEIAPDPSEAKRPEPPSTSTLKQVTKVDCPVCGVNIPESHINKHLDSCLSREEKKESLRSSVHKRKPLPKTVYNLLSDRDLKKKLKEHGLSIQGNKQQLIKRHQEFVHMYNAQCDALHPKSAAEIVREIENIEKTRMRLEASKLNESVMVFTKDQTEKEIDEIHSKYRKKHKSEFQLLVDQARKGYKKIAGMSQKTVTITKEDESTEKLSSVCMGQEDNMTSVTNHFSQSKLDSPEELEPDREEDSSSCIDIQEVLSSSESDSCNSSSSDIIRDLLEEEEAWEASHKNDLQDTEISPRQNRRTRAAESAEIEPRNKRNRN
UniProt P49792: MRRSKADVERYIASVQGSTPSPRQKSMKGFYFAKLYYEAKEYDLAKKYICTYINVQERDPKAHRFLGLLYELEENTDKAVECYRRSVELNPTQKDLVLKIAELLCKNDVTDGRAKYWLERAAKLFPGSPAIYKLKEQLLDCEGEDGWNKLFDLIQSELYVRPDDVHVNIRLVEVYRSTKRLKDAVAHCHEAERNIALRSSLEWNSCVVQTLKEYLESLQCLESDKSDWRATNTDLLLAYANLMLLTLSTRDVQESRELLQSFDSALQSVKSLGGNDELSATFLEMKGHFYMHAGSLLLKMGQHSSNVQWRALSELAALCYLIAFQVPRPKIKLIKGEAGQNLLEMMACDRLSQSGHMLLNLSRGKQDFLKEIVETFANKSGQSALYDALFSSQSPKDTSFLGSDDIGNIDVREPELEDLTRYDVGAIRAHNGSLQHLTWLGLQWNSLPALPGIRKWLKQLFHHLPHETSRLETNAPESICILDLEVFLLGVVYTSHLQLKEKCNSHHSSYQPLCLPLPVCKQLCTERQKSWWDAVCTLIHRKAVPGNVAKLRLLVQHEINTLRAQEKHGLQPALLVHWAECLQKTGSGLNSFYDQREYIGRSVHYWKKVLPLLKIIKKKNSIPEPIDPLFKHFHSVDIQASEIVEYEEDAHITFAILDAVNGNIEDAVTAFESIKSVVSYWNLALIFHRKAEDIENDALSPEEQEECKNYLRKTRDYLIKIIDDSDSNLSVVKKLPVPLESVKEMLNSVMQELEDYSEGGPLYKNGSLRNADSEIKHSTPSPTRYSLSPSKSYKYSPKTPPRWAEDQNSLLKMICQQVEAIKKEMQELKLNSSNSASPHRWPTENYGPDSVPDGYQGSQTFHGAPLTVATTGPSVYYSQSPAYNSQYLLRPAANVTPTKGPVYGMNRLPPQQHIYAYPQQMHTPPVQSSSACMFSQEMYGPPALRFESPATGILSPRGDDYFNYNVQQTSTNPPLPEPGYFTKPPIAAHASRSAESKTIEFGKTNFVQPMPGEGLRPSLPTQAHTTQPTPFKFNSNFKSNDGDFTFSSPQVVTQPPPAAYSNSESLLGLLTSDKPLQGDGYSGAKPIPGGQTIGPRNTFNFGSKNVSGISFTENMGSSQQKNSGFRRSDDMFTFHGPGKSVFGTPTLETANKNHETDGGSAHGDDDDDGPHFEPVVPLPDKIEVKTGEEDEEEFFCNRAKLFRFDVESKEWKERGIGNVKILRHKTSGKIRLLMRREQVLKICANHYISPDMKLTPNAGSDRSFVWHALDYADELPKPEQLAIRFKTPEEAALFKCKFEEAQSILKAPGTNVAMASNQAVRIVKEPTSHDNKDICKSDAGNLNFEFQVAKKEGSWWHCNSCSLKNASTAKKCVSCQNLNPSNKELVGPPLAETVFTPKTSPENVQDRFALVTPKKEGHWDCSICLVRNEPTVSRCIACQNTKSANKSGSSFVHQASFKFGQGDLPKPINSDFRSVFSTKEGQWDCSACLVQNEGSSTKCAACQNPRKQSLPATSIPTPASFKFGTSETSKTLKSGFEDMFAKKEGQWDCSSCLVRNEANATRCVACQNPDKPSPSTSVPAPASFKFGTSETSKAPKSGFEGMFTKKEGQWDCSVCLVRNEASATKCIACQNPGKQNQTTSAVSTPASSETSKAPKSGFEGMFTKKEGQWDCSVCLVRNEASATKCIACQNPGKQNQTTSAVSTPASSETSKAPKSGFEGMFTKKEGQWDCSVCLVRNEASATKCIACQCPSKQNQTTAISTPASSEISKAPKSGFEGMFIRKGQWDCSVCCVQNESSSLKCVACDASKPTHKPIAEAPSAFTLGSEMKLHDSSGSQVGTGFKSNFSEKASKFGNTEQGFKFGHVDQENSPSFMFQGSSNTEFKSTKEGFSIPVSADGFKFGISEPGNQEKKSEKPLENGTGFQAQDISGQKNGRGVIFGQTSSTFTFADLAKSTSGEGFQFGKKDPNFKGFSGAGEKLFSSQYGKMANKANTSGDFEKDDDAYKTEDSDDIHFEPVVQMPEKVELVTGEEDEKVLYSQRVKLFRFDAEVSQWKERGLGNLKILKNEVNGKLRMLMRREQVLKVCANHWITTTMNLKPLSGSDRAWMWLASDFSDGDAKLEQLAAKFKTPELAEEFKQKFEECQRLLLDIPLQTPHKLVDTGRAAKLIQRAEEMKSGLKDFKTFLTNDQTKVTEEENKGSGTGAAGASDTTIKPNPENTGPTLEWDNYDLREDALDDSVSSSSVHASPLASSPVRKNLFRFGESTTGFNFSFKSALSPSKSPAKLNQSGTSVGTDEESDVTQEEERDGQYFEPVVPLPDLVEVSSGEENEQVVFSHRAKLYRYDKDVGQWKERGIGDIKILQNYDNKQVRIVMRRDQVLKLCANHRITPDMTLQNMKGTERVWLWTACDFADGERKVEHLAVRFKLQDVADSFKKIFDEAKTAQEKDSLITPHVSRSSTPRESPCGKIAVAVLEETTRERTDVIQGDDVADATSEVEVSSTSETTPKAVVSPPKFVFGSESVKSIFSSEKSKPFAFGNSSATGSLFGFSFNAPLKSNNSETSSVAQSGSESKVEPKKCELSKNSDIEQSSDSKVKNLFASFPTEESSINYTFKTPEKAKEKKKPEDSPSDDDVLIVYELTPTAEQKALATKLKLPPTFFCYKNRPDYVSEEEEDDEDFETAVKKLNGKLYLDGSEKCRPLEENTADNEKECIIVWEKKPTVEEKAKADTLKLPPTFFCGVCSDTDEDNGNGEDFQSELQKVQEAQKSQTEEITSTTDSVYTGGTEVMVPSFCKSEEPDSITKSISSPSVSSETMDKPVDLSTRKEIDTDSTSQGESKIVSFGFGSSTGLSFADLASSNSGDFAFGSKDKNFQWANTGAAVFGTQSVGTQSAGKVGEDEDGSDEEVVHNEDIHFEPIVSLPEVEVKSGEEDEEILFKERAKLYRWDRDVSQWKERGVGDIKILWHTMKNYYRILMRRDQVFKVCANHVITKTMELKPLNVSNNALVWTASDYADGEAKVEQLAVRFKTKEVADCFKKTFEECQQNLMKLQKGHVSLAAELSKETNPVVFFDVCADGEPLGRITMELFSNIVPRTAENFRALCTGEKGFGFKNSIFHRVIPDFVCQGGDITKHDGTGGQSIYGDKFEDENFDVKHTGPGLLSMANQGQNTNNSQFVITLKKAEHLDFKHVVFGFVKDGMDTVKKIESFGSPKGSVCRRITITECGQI
UniProt P62993: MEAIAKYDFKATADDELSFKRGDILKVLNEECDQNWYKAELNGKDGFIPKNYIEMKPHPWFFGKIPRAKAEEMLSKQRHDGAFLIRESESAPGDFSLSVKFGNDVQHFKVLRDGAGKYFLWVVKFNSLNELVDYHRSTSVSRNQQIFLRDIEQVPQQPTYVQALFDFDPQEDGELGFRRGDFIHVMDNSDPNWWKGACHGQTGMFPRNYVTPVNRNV

What was measured:
Assay in all cases: GRB2 immunoprecipitation-mass spectrometry in HEK293T cells [panel G]
[1] = biological target: T1, UHRF2 (human) (UniProt Q96PU4)
T1 sequence (looked up): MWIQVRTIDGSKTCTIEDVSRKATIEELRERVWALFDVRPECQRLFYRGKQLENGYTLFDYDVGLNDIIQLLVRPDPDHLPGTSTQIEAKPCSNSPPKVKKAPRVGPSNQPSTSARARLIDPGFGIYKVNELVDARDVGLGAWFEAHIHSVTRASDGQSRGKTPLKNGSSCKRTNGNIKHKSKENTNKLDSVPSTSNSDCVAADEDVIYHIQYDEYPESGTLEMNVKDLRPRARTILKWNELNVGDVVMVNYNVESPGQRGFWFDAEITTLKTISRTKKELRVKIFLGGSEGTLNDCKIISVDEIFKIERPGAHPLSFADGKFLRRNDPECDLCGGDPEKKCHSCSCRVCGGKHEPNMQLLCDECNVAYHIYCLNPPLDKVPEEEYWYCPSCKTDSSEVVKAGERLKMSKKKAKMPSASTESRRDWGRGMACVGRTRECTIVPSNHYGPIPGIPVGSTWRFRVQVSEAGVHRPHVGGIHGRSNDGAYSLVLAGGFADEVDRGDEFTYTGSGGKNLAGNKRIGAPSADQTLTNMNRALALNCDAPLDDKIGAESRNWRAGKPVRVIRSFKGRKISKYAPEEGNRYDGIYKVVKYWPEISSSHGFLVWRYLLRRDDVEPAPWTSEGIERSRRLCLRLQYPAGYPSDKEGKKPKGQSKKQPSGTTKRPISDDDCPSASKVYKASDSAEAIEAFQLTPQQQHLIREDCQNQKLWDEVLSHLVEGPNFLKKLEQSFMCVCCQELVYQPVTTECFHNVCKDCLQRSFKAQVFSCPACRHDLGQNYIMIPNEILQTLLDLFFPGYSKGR

[2] = biological target: MYCBP2 (human) (UniProt O75592)
[3] = biological target: WWP2 (human) (UniProt O00308)
[4] = biological target: T2, UHRF1 (human) (UniProt Q96T88)
T2 sequence (looked up): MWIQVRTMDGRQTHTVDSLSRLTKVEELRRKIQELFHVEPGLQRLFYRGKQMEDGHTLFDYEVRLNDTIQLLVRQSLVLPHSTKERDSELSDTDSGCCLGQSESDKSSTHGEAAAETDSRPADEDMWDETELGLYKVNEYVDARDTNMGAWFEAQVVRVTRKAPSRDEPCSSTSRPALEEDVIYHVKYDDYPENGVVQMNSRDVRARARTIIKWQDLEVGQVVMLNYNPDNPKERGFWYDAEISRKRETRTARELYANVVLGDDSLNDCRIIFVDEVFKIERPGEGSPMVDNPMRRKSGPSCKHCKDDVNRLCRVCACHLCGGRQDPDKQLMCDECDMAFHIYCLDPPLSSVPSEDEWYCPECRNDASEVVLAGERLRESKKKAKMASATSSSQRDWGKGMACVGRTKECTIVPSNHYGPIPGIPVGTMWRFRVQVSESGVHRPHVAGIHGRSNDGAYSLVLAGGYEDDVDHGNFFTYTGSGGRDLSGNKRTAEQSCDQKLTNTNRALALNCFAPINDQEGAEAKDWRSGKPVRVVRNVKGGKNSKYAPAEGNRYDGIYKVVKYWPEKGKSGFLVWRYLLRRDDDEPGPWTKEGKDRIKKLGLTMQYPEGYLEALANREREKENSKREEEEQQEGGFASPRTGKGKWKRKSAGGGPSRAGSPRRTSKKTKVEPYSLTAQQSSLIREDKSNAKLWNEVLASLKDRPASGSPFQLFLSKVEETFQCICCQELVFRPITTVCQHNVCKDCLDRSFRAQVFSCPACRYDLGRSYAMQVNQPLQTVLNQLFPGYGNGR

[5] = biological target: HUWE1 (human) (UniProt Q7Z6Z7)
[6] = biological target: T3, CBX4 (human) (UniProt O00257)
T3 sequence (looked up): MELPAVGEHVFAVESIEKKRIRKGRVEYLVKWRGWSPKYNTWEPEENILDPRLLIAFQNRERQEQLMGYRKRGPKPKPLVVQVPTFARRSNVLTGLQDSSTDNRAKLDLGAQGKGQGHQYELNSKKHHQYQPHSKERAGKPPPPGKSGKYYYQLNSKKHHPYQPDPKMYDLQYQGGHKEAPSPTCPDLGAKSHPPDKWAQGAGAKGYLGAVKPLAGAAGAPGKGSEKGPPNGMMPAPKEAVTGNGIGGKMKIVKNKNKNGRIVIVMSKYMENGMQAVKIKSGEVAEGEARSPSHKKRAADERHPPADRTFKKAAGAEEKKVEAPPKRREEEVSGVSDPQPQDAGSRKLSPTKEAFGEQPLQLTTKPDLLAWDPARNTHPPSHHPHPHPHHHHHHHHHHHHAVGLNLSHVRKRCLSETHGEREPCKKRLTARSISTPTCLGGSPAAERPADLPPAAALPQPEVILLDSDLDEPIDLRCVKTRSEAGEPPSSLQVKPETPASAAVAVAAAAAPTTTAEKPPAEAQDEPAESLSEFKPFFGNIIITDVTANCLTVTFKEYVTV

[7] = biological target: T4, PPIL2 (human) (UniProt Q13356)
T4 sequence (looked up): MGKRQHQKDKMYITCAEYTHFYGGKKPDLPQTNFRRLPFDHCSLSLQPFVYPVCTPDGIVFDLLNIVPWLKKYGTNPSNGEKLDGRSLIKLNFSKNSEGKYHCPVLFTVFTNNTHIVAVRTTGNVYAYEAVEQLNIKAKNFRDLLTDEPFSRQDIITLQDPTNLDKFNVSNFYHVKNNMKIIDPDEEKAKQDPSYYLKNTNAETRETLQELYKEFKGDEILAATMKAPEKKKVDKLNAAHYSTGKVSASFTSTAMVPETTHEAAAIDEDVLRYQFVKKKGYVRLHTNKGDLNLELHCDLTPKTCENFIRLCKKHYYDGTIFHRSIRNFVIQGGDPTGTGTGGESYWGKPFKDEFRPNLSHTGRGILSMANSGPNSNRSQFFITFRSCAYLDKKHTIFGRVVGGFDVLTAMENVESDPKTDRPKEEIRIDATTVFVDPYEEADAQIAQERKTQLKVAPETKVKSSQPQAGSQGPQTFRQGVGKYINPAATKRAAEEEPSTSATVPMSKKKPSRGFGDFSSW

[8] = biological target: PIAS1 (human) (UniProt O75925)
[9] = biological target: RAD18 (human) (UniProt Q9NS91)
[10] = biological target: RANBP2 (human) (UniProt P49792)

Measured: binding

Strep-tagged wild-type GRB2 expressed in cells (HEK293T; reconstituted GRB2-KO cells) (from UniProt P62993 1-217)
binds: [1] | [2] | [3] | [4] | [5] | [6] | [7] | [8] | [9] | [10]

No constants are given. Whether binding was seen depends on the method and setting. Binding seen in cells or lysates may run through a third protein. These calls come from enrichment with a bait or labelling near it, and not all partners need be listed.
